Source: paper PMC9950448
Results are given in words; binding and its absence hold for the method and conditions named. Binding seen in cells or lysates may run through a third protein. Some entries that bind do so weakly or less than the wild type. For some of these results: Sequences can lack the tags named with a protein.

Amino acid sequences for entries named in this document (tags omitted).
UniProt Q99873: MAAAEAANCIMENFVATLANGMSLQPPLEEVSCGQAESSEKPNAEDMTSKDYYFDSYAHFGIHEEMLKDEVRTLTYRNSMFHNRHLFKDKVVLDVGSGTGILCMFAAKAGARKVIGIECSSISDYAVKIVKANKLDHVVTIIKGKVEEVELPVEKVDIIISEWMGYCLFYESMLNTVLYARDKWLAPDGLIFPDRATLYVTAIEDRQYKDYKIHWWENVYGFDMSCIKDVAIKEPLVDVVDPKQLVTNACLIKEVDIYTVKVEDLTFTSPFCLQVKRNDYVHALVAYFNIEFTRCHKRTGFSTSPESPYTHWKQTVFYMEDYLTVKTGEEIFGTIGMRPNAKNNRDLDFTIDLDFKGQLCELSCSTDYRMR
UniProt O14744: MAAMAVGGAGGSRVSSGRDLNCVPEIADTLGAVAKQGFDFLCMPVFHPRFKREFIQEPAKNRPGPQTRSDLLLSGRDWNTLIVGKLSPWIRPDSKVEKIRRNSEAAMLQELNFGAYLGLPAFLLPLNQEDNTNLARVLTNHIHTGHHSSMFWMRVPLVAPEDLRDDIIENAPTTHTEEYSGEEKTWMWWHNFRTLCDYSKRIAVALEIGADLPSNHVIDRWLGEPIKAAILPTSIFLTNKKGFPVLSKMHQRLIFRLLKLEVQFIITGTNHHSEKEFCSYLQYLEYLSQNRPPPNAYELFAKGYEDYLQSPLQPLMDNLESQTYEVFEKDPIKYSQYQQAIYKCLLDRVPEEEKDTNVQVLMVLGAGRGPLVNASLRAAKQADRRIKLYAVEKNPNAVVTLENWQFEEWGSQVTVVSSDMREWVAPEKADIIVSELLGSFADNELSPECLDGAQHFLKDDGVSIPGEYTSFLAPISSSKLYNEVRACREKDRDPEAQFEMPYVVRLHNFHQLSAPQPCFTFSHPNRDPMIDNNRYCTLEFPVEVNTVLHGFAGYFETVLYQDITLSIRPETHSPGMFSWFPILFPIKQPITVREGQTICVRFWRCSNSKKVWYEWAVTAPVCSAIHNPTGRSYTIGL

Tests used:
[1] = target: T1, FLAG-PHGDH WT (phosphoglycerate dehydrogenase) (human) (UniProt O43175); experiment: co-IP; FLAG-PHGDH co-expressed with different GFP-PRMTs in HEK293T cells
T1 sequence: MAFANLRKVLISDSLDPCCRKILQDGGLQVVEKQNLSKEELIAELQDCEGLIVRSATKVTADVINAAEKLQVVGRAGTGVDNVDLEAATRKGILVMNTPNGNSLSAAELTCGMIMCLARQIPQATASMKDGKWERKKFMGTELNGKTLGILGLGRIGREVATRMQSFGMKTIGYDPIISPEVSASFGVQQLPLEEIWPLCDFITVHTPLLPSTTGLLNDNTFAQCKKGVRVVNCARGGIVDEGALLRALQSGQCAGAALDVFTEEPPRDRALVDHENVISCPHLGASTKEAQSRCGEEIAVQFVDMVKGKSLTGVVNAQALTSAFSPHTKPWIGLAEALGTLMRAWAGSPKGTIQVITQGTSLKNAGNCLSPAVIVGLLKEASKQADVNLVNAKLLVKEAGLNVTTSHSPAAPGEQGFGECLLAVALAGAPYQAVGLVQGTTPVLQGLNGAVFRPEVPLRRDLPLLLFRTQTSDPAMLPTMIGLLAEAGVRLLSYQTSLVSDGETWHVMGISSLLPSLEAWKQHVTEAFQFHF

[2] = target: T1, FLAG-PHGDH WT (phosphoglycerate dehydrogenase) (human); experiment: co-IP; FLAG-PHGDH WT or point mutants co-expressed with HA-PRMT1 in HEK293T cells; FLAG-PHGDH immunopurified with FLAG beads, immunoblotting with HA antibody
[3] = target: T2, endogenous PHGDH (human (endogenous in HEK293T, Huh7, PLC/PRF/5)) (UniProt O43175); experiment: co-IP; reciprocal co-IP of endogenous PHGDH and PRMT1 in HEK293T, Huh7 and PLC/PRF/5 cells; IgG as negative control; NP-40 buffer (50 mM Tris-HCl pH 7.4, 150 mM NaCl, 1% NP-40, 1 mM EDTA); also with cells treated with the methylated or nonmethylated TAT peptides
T2 sequence: T1 sequence

GFP-PRMT1 (from UniProt Q99873 1-371) (enzyme)
binding [1]: binds

GFP-PRMT5 (from UniProt O14744 1-637) (enzyme)
binding [1]: no binding

HA-PRMT1 (from UniProt Q99873 1-371) (enzyme)
binding [2]: binds

endogenous PRMT1 (protein arginine methyltransferase 1) (from UniProt Q99873 1-371) (enzyme)
binding [3]: binds
